# From PubChem BioAssay AID588590 (National Center for Advancing Translational Sciences (NCATS), 2011)
# By UniProt entry, the sequences of proteins in these tests, tags left out. Where a name states a change or a piece, a line headed by the entry shows the natural chain unless it says otherwise.
# UniProt Q9UNA4: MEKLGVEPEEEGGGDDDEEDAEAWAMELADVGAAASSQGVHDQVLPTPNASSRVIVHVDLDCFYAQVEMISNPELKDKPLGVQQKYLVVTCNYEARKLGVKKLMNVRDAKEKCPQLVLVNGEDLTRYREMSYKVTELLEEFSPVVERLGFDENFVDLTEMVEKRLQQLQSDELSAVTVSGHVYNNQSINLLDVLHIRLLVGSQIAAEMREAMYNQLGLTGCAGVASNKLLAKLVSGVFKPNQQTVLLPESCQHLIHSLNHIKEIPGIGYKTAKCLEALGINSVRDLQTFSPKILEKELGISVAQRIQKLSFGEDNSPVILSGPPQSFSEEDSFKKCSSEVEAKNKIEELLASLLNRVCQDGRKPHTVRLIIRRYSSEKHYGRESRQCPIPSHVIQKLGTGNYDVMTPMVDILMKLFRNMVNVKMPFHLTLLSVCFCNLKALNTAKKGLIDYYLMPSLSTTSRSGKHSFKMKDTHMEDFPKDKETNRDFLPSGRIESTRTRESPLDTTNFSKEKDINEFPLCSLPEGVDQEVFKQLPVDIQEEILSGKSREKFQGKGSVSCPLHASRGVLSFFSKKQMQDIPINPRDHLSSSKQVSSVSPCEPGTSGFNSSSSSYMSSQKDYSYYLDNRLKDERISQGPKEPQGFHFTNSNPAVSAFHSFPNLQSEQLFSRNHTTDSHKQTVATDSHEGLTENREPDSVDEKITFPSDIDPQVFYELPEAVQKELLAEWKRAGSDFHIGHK
# About 4,000 (1%) of roughly 390,000 compounds were called active. Inconclusive results, whose numbers are uncertain, are shown with a selection of clear calls. Calls follow the shape of the dose curve; as a rule, active = well fitted inhibition curve with a large enough effect; inconclusive = small, poorly fitted or top-dose-only effect, or another doubt; inactive = no such curve, though single readings can be large or run the other way. Potencies of inconclusive entries are doubtful fits and often do not repeat.
# Biological target: DNA polymerase iota (Homo sapiens) (UniProt Q9UNA4)
# Assay: qHTS for Inhibitors of Polymerase Iota
# Conditions: Pol iota fluorescent replication assay, 10 min; series mostly up to 115 µM
# Summary of the method: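 Pol iota at 10 nM preincubated 15 min with compounds at room temperature; reaction started with fluorescent substrate, 50 nM final. Fluorescence read kinetically at 0 and 10 min; buffer-only wells as negative control.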
# Potency is read from the fitted curve at half-maximal effect.
row,SMILES,Potency
1,N#CCSc1ccc2nc(-c3ccccc3)cn2n1,"inconclusive: 89.1 µM [inhibitor, single point]"
2,Oc1ccc2ccccc2c1/C=N/Nc1ccccc1,"inconclusive: 15.8 µM [inhibitor, full curve]"
3,CC1CCN(C(=O)CSC2=NS(=O)(=O)c3cc(F)ccc3N2)CC1,"inconclusive: 17.8 µM [inhibitor, partial curve, poor fit]"
4,CCCc1cc(-n2ccnc2)n2c(nc3ccccc32)c1C#N,"inconclusive: 50.1 µM [inhibitor, partial curve]"
5,CCOCCCNC(=S)N1CCN(c2nc(-c3ccc(F)cc3)cs2)CC1,inactive
6,O=C(COc1ccc(Br)cc1)Nc1ccc(C(=O)OC2CCCCC2)cc1,inactive
7,O=C(Nc1cc(C(=O)N2CCN(c3ccccc3)CC2)ccc1Cl)c1cccs1,inactive
8,COc1ccc(-c2noc(-c3ccc(NCCc4ccccc4)c([N+](=O)[O-])c3)n2)cc1,inactive
9,O/N=C(/C[n+]1cccc(Br)c1)c1ccc2ccccc2c1,inactive
10,CCN(CC)C(=O)[C@H]1CC(CC(=O)NCc2ccc(OC)c(OC)c2)C(=O)N2CCc3c([nH]c4ccc(OC)cc34)[C@]12C (some centres undefined),"inconclusive: 50.1 µM [inhibitor, partial curve, poor fit]"
11,CCOC(=O)c1c(-c2cccc3ccccc23)csc1NC(=O)C1C2CCC(O2)C1C(=O)O (centres undefined),"inconclusive: 112 µM [inhibitor, partial curve, poor fit]"
12,ON=C1c2cc(OCCN3CCCCC3)ccc2-c2ccc(OCCN3CCCCC3)cc21,inactive
13,COC(=O)c1ccc2c(c1)N(Cc1cc(C)ccc1C)C(=O)c1ccccc1S2(=O)=O,inactive
14,CCCc1nc(SC)[nH]c(=O)c1C,"inconclusive: 20 µM [inhibitor, partial curve, poor fit]"
15,CC(C)Nc1nnc(SCC(=O)Nc2ccc3c(c2)C(=O)c2ccccc2C3=O)s1,"inconclusive: 56.2 µM [inhibitor, partial curve]"
16,Cn1c(=O)[nH]c(=O)c2c1ncn2CCN1CCOCC1,"inconclusive: 79.4 µM [inhibitor, single point]"
17,Cc1nn(-c2ccccc2)c(C)c1C=O,inactive
18,O=C(COc1ccccc1)Nc1nc(-c2cccnc2)cs1,inactive
19,COc1cccc(NS(=O)(=O)c2ccc3c(c2)N(C(C)=O)CCO3)c1,"inconclusive: 79.4 µM [inhibitor, single point]"
20,O=C(Nc1nnc(C2CCCCC2)s1)C1CCN(C(=O)c2ccco2)CC1,inactive
21,Cc1nc(N2CCOCC2)c2cc(-c3ccccc3)sc2n1,"inconclusive: 5.01 µM [inhibitor, partial curve, poor fit]"
22,COc1cccc(NC(=O)Cn2c(=O)oc3ccccc32)c1,"inconclusive: 89.1 µM [inhibitor, single point]"
23,O=C(NCCO)c1ccc(Cl)c(Cl)c1,inactive

row,SMILES,Potency
1,Cc1cc2oc(C(=O)Nc3ccc(S(=O)(=O)N(C)c4ccccc4)cc3)cc(=O)c2cc1C,inactive
2,Clc1ccc(CNc2ncnc3[nH]ncc23)c(Cl)c1,"inconclusive: 31.6 µM [inhibitor, partial curve, poor fit]"
3,CN(CCCC(=O)O)c1ccc(N=Nc2ccc([N+](=O)[O-])cc2)cc1,"inconclusive: 25.1 µM [inhibitor, partial curve, poor fit]"
4,O=C(CSc1nc2c(oc3ccccc32)c(=O)n1-c1ccccc1)Nc1ccc(F)c(Cl)c1,inactive
5,COc1ccc(C2CC(=O)N(CC(=O)NCC3CCCO3)c3ccccc3S2)cc1 (centres undefined),"inconclusive: 89.1 µM [inhibitor, partial curve, poor fit]"
6,COc1cc2oc3ccccc3c(=O)c2cc1OC,"inconclusive: 28.2 µM [inhibitor, single point]"
7,O=C(CSc1nc2nc(-c3cccs3)cc(C(F)(F)F)c2c(=O)[nH]1)Nc1c(F)c(F)c(F)c(F)c1F,"inconclusive: 2.82 µM [inhibitor, full curve, poor fit]"
8,O=C(COc1ccc(S(=O)(=O)N2CCOCC2)cc1Cl)N1CCCC1,inactive
9,CCN1CCN(c2ccc(/C=C/c3ccnc4ccccc34)cc2)CC1,"inconclusive: 100 µM [inhibitor, single point]"
10,Cc1ccc(N(CC2=NCCN2)c2cccc(O)c2)cc1,"inconclusive: 50.1 µM [inhibitor, partial curve, poor fit]"
11,COc1ccc(N=C2NC(=O)C(CC(=O)NCCc3ccc(OC)c(OC)c3)S2)cc1 (centres undefined),"inconclusive: 79.4 µM [inhibitor, partial curve, poor fit]"
12,CCOc1ccc(C(=O)NCc2ccco2)cc1Cl,"inconclusive: 79.4 µM [inhibitor, partial curve, poor fit]"
13,CSc1ccc(CCNC(=O)c2csc3c2CCCCC3)cc1,inactive
14,C=CCN(C(=O)CSC1=NC(=O)CN1C(C)=O)c1nc(C)c(-c2ccccc2)s1,"inconclusive: 31.6 µM [inhibitor, partial curve]"
15,COc1c(Cl)cc(C(=O)NN)cc1Cl,inactive
16,CN(C)c1ccc(CNC(=O)c2ccc3nc(Cc4ccccc4)oc3c2)cc1,active: 28.2 µM
17,C[C@@]12CCC=C[C@H]1[C@H](c1ccoc1)N(Cc1ccccc1)C2=O,"inconclusive: 25.1 µM [inhibitor, full curve, poor fit]"
18,O=C(CSc1nnc(-c2ccco2)c(-c2ccco2)n1)c1ccccc1,active: 17.8 µM
19,Cc1ccc(C(=O)c2c(N)c(C(=O)Nc3cccc(C(F)(F)F)c3)c3ccccn23)cc1,inactive
20,COc1ccc(-c2csc(/C(C#N)=C\c3ccc(OC)c([N+](=O)[O-])c3)n2)cc1,inactive
21,COc1cccc(-c2nc(-c3ccc(NC(=O)c4ccncc4)cc3)no2)c1,"inconclusive: 3.16 µM [inhibitor, full curve, poor fit]"
22,Cc1c(C(=O)OCCOC(C)C)[nH]c2c1C(=O)CC(c1ccco1)C2 (centres undefined),"inconclusive: 35.5 µM [inhibitor, full curve, poor fit]"
23,CCCC1CCc2[nH]nc(C(=O)NN)c2C1 (centres undefined),"inconclusive: 79.4 µM [inhibitor, partial curve, poor fit]"

# Six entries picked at random from the list so far:
row,SMILES,Potency
13,CSc1ccc(CCNC(=O)c2csc3c2CCCCC3)cc1,inactive
10,Cc1ccc(N(CC2=NCCN2)c2cccc(O)c2)cc1,"inconclusive: 50.1 µM [inhibitor, partial curve, poor fit]"
5,COc1ccc(C2CC(=O)N(CC(=O)NCC3CCCO3)c3ccccc3S2)cc1 (centres undefined),"inconclusive: 89.1 µM [inhibitor, partial curve, poor fit]"
6,COc1cc2oc3ccccc3c(=O)c2cc1OC,"inconclusive: 28.2 µM [inhibitor, single point]"
3,CN(CCCC(=O)O)c1ccc(N=Nc2ccc([N+](=O)[O-])cc2)cc1,"inconclusive: 25.1 µM [inhibitor, partial curve, poor fit]"
21,COc1cccc(-c2nc(-c3ccc(NC(=O)c4ccncc4)cc3)no2)c1,"inconclusive: 3.16 µM [inhibitor, full curve, poor fit]"

# More results:

row,SMILES,Potency
1,CC(C)(C)c1cc[n+](C2=C([O-])c3ccccc3C(=O)/C2=N\S(=O)(=O)c2cccs2)cc1,"inconclusive: 25.1 µM [inhibitor, single point]"
2,COc1cc(NC(=O)c2nn(C)c3c2COc2ccccc2-3)cc(OC)c1OC,inactive
3,O=C(Nc1ccc2snnc2c1)Nc1cccc2ccccc12,"inconclusive: 28.2 µM [inhibitor, single point]"
4,Cc1ccc(C)c(OCCC(=O)Nc2ccc(S(=O)(=O)N3CCCC3)cc2)c1,"inconclusive: 0.631 µM [inhibitor, full curve, poor fit]"
5,CCOC(=O)[C@H]1[C@H]2COc3ccc(C)cc3[C@@H]2N2C(=O)c3ccc(F)cc3NC(=O)[C@@]12C,"inconclusive: 25.1 µM [inhibitor, single point]"
6,Cc1[nH]c(=O)[nH]c1C(=O)CCCCC(=O)OCC(=O)Nc1ccccn1,inactive
7,Cc1cccc(NC(=O)Cn2c(=O)n(Cc3ccccc3)c(=O)c3oc4ccccc4c32)c1C,inactive
8,O=C(N/N=C/c1ccccc1Cl)c1[nH]c2ccc(Br)cc2c1-c1ccccc1,active: 79.4 µM
9,O=C(O)C12C3CCC(O3)C1(C(=O)O)C1CCC2O1 (centres undefined),"inconclusive: 79.4 µM [inhibitor, partial curve, poor fit]"
10,COc1ccc(OC)c(Nc2ncnc3sccc23)c1,"inconclusive: 79.4 µM [inhibitor, single point]"
11,CCc1ccccc1NC(=O)Nc1cccn(Cc2ccc(F)cc2)c1=O,"inconclusive: 25.1 µM [inhibitor, partial curve, poor fit]"
12,CCC(C)OC(=O)C1=C(C)O[C@]23OC(N)=C(C#N)[C@]12C(=O)c1ccccc13 (some centres undefined),"inconclusive: 89.1 µM [inhibitor, single point]"
13,COCCCNC(=O)c1ccc(Cn2c(=O)c3ccccc3n(Cc3ccc(Cl)cc3)c2=O)cc1,"inconclusive: 89.1 µM [inhibitor, single point]"
14,O=C(OCCc1ccccc1)c1cc(O)c(O)c(O)c1,"inconclusive: 63.1 µM [inhibitor, partial curve, poor fit]"
15,CC1=NN(c2ccc(Br)cc2)C(=O)/C1=C/c1ccc(-c2ccccc2C(=O)O)o1,"inconclusive: 1.26 µM [inhibitor, full curve, poor fit]"
16,CN1CCN(NC(=O)c2ccc(S(=O)(=O)N3CC4(C)CC3CC(C)(C)C4)cc2)CC1 (centres undefined),"inconclusive: 15.8 µM [inhibitor, partial curve, poor fit]"
17,CCc1cc2cc(C(=O)Nc3ccc(F)cc3)sc2s1,"inconclusive: 15.8 µM [inhibitor, full curve, poor fit]"
18,CCOC(=O)c1cc2n(n1)C(C(F)(F)F)CC(C)N2 (centres undefined),inactive
19,C1CCC(CNc2c3c(nc4nnnn24)CCCC3)CC1,inactive
20,COCc1cc(=O)n2[nH]c(-c3ccsc3-n3c(C)ccc3C)cc2n1,"inconclusive: 11.2 µM [inhibitor, full curve, poor fit]"
21,O=c1[nH]nc(Cc2ccc(Cl)cc2Cl)c2ccccc12,"inconclusive: 89.1 µM [inhibitor, single point]"
22,CCS(=O)(=O)N1Cc2ccccc2CC1C(=O)Nc1ncc(C)s1 (centres undefined),inactive
23,Cc1cc(NC(=O)c2ccc(N3CCCC3)c([N+](=O)[O-])c2)no1,"inconclusive: 17.8 µM [inhibitor, full curve]"
